For 37 targets, log2 fold change results are on record in the supplement of paper PMC10849652.

Sequences of proteins named here, by UniProt entry; tags and fusion partners are left off. A change or cut given only in a name is not applied to a line headed by its entry.
UniProt Q5T5C0: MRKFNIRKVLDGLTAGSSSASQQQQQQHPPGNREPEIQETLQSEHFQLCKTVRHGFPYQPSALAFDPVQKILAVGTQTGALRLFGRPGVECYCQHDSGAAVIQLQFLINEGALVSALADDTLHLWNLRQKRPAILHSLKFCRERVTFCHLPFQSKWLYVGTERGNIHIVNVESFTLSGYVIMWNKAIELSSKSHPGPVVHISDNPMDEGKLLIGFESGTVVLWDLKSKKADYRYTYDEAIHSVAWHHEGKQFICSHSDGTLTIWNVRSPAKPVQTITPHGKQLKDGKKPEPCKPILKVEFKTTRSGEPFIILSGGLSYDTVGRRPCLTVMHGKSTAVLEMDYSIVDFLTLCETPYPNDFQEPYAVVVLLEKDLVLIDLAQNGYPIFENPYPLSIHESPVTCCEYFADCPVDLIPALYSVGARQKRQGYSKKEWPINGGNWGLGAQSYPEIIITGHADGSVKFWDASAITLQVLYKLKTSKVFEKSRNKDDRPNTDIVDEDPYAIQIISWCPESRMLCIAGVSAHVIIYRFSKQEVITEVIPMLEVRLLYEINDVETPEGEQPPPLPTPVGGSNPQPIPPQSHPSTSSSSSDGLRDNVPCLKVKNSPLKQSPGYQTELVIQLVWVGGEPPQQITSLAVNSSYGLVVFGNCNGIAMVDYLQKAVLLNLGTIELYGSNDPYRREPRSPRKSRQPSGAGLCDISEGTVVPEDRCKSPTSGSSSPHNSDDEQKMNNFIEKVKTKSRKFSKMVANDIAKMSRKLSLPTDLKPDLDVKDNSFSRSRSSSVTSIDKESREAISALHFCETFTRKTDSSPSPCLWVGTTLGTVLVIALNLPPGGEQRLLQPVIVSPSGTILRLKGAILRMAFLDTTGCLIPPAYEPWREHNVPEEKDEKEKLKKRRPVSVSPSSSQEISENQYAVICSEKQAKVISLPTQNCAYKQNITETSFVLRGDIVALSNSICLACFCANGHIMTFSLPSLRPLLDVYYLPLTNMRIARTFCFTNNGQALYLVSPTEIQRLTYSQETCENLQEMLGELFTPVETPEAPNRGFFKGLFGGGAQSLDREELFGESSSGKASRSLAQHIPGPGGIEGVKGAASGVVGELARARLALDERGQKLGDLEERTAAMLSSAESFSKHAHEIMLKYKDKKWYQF
UniProt Q96A49: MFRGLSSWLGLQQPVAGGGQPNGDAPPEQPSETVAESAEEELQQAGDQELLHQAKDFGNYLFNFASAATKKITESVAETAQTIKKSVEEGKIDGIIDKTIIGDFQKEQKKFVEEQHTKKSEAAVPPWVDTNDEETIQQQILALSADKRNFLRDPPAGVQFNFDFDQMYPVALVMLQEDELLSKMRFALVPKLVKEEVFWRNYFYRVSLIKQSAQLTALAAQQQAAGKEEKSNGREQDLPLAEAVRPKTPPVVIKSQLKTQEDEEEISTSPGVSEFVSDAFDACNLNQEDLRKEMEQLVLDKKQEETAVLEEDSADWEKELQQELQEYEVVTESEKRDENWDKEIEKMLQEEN
UniProt Q96BN2: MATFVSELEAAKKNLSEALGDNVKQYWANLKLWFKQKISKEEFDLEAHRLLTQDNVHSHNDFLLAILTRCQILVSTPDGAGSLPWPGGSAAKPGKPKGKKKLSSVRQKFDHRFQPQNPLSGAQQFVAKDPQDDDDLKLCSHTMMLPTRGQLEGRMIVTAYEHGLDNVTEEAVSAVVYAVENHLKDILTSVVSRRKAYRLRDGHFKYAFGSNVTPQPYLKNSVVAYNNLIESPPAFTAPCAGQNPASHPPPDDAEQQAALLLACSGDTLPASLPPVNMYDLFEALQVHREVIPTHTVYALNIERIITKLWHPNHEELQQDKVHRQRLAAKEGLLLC
UniProt P08247, whole entry, looked up: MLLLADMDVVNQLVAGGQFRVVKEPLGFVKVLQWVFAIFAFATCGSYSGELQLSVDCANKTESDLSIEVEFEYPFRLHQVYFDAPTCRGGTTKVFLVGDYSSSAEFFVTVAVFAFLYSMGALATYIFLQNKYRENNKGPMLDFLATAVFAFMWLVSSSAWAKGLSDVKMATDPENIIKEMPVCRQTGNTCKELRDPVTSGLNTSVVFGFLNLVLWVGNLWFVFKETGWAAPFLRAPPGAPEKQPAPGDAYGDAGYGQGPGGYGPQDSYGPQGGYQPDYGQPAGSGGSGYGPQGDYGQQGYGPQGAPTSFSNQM
UniProt Q9P289: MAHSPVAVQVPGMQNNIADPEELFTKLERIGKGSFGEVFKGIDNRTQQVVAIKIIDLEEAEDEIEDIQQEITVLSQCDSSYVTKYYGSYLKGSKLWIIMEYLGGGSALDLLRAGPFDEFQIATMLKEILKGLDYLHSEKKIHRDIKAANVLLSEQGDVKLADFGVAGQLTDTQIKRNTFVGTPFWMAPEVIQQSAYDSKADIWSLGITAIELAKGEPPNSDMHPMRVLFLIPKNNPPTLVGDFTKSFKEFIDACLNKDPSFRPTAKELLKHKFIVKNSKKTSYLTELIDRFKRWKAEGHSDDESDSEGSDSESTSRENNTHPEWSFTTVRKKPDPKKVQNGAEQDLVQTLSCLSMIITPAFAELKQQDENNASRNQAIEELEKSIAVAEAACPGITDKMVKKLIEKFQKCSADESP
UniProt O15056: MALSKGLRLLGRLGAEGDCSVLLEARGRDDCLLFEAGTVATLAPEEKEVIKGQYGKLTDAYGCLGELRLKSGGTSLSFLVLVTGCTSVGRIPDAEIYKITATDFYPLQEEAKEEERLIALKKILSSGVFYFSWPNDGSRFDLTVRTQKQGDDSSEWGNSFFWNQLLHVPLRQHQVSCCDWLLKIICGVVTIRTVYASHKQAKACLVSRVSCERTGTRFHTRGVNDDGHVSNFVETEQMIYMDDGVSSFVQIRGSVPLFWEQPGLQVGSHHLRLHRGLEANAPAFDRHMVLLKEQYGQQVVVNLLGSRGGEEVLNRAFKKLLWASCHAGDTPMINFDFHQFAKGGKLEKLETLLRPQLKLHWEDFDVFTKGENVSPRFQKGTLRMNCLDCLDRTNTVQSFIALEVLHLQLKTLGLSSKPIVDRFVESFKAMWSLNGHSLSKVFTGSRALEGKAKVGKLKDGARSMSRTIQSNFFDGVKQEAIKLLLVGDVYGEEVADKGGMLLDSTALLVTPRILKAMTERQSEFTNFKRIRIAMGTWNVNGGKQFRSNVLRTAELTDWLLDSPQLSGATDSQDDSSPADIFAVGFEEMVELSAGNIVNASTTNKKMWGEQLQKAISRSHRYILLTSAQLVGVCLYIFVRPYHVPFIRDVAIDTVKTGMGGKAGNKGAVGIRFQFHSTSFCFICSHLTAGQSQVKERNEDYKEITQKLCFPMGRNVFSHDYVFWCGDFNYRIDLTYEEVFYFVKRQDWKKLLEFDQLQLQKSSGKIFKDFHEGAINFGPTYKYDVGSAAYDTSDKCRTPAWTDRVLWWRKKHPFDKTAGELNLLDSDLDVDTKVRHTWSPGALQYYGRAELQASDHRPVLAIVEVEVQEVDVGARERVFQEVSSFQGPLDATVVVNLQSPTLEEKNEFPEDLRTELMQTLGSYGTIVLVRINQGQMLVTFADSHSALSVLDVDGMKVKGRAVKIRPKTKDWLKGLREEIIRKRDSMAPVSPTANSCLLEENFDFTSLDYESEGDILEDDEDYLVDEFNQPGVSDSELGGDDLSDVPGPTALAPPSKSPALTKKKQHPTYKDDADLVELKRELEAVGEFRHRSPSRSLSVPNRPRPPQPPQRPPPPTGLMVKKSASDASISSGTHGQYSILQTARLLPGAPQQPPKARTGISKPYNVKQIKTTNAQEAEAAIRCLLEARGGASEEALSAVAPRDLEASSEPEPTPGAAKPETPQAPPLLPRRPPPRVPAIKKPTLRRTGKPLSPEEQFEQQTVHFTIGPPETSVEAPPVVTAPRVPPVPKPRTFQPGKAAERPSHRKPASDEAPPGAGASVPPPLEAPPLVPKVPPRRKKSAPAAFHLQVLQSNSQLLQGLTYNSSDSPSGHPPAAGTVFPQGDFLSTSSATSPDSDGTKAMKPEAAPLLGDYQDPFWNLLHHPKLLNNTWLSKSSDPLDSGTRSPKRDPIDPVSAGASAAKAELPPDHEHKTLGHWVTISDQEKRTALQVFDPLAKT
UniProt Q8NBJ7: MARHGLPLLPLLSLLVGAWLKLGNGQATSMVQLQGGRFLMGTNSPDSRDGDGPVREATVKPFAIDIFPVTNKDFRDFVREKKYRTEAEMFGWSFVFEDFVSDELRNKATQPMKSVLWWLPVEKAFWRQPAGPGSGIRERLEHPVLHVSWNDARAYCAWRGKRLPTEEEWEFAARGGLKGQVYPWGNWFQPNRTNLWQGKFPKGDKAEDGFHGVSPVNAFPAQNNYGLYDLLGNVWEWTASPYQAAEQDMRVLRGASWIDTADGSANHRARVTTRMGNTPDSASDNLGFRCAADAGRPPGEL
UniProt Q9ULQ0: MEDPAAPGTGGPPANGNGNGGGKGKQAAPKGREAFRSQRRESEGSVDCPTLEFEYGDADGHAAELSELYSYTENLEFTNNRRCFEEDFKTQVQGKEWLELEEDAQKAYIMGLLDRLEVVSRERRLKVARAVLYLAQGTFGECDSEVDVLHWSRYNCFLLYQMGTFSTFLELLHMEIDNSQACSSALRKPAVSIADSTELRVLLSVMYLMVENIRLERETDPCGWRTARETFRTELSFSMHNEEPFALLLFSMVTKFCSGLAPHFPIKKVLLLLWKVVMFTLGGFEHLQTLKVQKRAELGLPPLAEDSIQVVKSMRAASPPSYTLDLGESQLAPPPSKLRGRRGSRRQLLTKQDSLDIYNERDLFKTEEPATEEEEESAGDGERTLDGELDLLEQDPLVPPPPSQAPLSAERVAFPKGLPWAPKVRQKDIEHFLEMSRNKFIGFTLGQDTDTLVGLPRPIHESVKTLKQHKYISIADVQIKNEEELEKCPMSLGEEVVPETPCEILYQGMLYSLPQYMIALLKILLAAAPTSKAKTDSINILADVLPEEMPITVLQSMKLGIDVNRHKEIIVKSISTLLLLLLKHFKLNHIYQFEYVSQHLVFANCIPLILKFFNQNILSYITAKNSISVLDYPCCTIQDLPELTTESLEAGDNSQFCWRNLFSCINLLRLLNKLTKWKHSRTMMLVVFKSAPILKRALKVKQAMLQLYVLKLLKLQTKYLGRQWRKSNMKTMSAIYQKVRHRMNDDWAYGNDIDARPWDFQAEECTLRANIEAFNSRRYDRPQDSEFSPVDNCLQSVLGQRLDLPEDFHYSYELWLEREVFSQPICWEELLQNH
UniProt Q16563: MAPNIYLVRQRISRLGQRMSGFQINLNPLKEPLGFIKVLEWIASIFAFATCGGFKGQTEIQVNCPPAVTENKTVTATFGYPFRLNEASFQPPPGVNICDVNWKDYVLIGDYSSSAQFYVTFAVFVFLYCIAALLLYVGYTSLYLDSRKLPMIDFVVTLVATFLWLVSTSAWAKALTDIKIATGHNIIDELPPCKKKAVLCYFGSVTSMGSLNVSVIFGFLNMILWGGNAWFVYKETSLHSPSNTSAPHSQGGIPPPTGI
UniProt Q13190: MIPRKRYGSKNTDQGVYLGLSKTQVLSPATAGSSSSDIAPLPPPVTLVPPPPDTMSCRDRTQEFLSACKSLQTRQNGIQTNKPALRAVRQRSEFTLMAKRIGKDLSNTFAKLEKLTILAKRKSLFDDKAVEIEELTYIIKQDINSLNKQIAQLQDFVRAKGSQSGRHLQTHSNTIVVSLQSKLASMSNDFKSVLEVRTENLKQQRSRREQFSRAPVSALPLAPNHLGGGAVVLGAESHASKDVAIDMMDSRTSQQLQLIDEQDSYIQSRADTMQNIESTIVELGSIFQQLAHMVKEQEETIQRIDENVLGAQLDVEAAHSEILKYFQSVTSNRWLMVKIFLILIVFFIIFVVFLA
UniProt Q93045: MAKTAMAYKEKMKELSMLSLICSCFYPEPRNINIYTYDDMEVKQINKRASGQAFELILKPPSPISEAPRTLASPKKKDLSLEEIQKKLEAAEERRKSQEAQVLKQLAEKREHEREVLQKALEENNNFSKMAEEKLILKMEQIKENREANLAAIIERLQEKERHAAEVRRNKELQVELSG
UniProt O00186: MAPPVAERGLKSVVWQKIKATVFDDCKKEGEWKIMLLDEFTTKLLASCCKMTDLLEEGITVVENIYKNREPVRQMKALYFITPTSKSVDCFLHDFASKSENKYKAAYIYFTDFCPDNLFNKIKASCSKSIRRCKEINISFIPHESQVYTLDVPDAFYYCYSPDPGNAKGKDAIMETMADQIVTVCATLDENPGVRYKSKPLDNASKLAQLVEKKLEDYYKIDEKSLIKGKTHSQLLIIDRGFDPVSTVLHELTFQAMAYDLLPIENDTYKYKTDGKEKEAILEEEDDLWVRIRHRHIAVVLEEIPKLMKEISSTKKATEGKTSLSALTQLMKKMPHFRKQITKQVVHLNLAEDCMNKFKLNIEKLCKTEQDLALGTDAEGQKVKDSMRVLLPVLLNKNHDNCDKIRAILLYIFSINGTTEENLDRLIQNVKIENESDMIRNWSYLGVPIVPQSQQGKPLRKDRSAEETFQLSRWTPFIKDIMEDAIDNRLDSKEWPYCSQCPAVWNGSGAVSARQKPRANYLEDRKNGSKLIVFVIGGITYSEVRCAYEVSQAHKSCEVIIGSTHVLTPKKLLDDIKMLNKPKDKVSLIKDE

The list shows a part of the results.

Compound in the first experiment: Cc1cc(Nc2cc(N3CCN(C)CC3)nc(Sc3ccc(NC(=O)C4CC4)cc3)n2)n[nH]1 [tozasertib]
As to the kind of experiment: log2 fold change, soluble protein after heating vs DMSO (PISA); higher = thermal stabilisation; K562 lysate, 10 uM; active = over 0.2 and 3.5 SD of the protein, either way, in both replicates (recomputed). A digest of the protocol:
(§1)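 A 30 min treatment with 10 μM compound was applied to crude K562 extract at 1 mg/mL protein in PBS pH 7.4 with 1 mM MgCl2. Heating for 3 min spanned 48°C-58°C, after which aliquots were pooled, adjusted to 0.5% NP-40 at 4°C and spun at 21,000xg for 90 min. TMTpro 16plex LC-MS/MS of the supernatant, with channel sums equalised, gave values recorded as log-two fold change in thermal stability against solvent controls, from duplicates.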
For the target SYNE1 (UniProt Q8NF91), the log2 fold change was inactive: -0.15.
TACO1 (UniProt Q9BSH4): the log2 fold change is inactive: 0.033.
As for STRN3 (UniProt Q13033), the log2 fold change is inactive: 0.03.
Still for that read-out and setting: the value for STXBP5 (UniProt Q5T5C0) was inactive: -0.016; that for SUPT16H (UniProt Q9Y5B9) was inactive: 0.006.
Consider SYAP1 (UniProt Q96A49), for which the log2 fold change is inactive: 0.001.
On to TADA1 (UniProt Q96BN2), for which the log2 fold change was inactive: -0.016.
With STRN4 isoform 3 (UniProt Q9NRL3), the log2 fold change was inactive: 0.003.
With STMN1 (UniProt P16949), the log2 fold change was inactive: -0.016.
In the case of TAF4B (UniProt Q92750), the log2 fold change is inactive: -0.333.
On the same count and under the same terms, in the case of SYP (UniProt P08247) it was inactive: 0.072; in that of SUGP1 (UniProt Q8IWZ8), inactive: -0.005; in that of TACC3 (UniProt Q9Y6A5), inactive: -0.007.
On to TAF12 (UniProt Q16514), for which the log2 fold change was inactive: -0.031.
On the same count and under the same terms, in the case of TAB1 (UniProt Q15750) it was inactive: 0.003.
As to STK26 (UniProt Q9P289), the log2 fold change is inactive: 0.005.
For the target STRIP1 (UniProt Q5VSL9), the log2 fold change was inactive: -0.038.
The same measure, in the same setting: the value for SYNJ2 (UniProt O15056) was inactive: -0.022; that for SUMF2 (UniProt Q8NBJ7) was inactive: -0.038.
Consider STX18 (UniProt Q9P2W9), for which the log2 fold change is inactive: 0.187.
Same read-out and setting: in the case of STK3 isoform 2 (UniProt Q13188) it was inactive: 0.224; in that of STK39 (UniProt Q9UEW8), inactive: 0.021.
Regarding SVIP (UniProt Q8NHG7), the log2 fold change was inactive: 0.037.
On the same count and under the same terms, in the case of SYNCRIP (UniProt O60506) it was inactive: -0.012; in that of TAF2 (UniProt Q6P1X5), inactive: 0.003; in that of TADA3 (UniProt O75528), inactive: 0.066.
Consider STRIP2 (UniProt Q9ULQ0), for which the log2 fold change was inactive: -0.008.
With SUMO1 (UniProt P63165), the log2 fold change is inactive: 0.066.
The same measure, in the same setting: the value for SUB1 (UniProt P53999) was inactive: -0.001; that for SYPL1 (UniProt Q16563) was inactive: -0.028.
For TAF1B (UniProt Q53T94), the log2 fold change is inactive: 0.304.
For the target SYNRG (UniProt Q9UMZ2), the log2 fold change was inactive: 0.024.
Same read-out and setting: the value for STX5 (UniProt Q13190) was inactive: 0.
Still for that read-out and setting: the value for STMN2 isoform 2 (UniProt Q93045) was inactive: 0.012; that for STXBP3 (UniProt O00186) was inactive: -0.006.
In the case of STRAP isoform 2 (UniProt Q9Y3F4), the log2 fold change is inactive: -0.015.
On the same count and under the same terms, the value for SUCLA2 (UniProt Q9P2R7) was inactive: 0.006.

Compound in a further experiment: Cc1ccc(-n2nc(C(C)(C)C)cc2NC(=O)Nc2ccc(OCCN3CCOCC3)c3ccccc23)cc1 [doramapimod]
The experiment is described as above. A digest of the protocol:
as §1
As to SYNE1 (UniProt Q8NF91), the log2 fold change was inactive: -0.001.
On the same count and under the same terms, in the case of TACO1 (UniProt Q9BSH4) it was inactive: -0.099; in that of STRN3 (UniProt Q13033), inactive: 0.021.
Consider STXBP5 (UniProt Q5T5C0), for which the log2 fold change was inactive: 0.056.
As for SUPT16H (UniProt Q9Y5B9), the log2 fold change is inactive: 0.03.
On the same count and under the same terms, the value for SYAP1 (UniProt Q96A49) was inactive: 0.161.
Consider TADA1 (UniProt Q96BN2), for which the log2 fold change is inactive: 0.001.
Still for that read-out and setting: in the case of STRN4 isoform 3 (UniProt Q9NRL3) it was inactive: -0.034; in that of STMN1 (UniProt P16949), inactive: -0.051; in that of TAF4B (UniProt Q92750), inactive: -0.018.
As to SYP (UniProt P08247), the log2 fold change was inactive: -0.075.
Same read-out and setting: the value for SUGP1 (UniProt Q8IWZ8) was inactive: -0.035; that for TACC3 (UniProt Q9Y6A5) was inactive: -0.056.
For the target TAF12 (UniProt Q16514), the log2 fold change is inactive: 0.065.
TAB1 (UniProt Q15750): the log2 fold change was inactive: 0.016.
For STK26 (UniProt Q9P289), the log2 fold change was inactive: -0.036.
In the case of STRIP1 (UniProt Q5VSL9), the log2 fold change is inactive: -0.006.
Turning to SYNJ2 (UniProt O15056), the log2 fold change is inactive: 0.053.
Same read-out and setting: the value for SUMF2 (UniProt Q8NBJ7) was inactive: 0.017; that for STX18 (UniProt Q9P2W9) was inactive: 0.002; that for STK3 isoform 2 (UniProt Q13188) was inactive: -0.035.
The same measure, in the same setting: in the case of STK39 (UniProt Q9UEW8) it was inactive: 0.032; in that of SVIP (UniProt Q8NHG7), inactive: 0.021.
On the same count and under the same terms, in the case of SYNCRIP (UniProt O60506) it was inactive: -0.028; in that of TAF2 (UniProt Q6P1X5), inactive: 0.013; in that of TADA3 (UniProt O75528), inactive: 0.006.
For STRIP2 (UniProt Q9ULQ0), the log2 fold change is inactive: -0.002.
Same read-out and setting: the value for SUMO1 (UniProt P63165) was inactive: 0.07.
On the same count and under the same terms, in the case of SUB1 (UniProt P53999) it was inactive: -0.078.
Still for that read-out and setting: in the case of SYPL1 (UniProt Q16563) it was inactive: -0.009.
On to TAF1B (UniProt Q53T94), for which the log2 fold change was inactive: 0.017.
The same measure, in the same setting: in the case of SYNRG (UniProt Q9UMZ2) it was inactive: -0.023; in that of STX5 (UniProt Q13190), inactive: 0.007.
Still for that read-out and setting: in the case of STMN2 isoform 2 (UniProt Q93045) it was inactive: -0.069; in that of STXBP3 (UniProt O00186), inactive: -0.055; in that of STRAP isoform 2 (UniProt Q9Y3F4), inactive: -0.044.
With SUCLA2 (UniProt Q9P2R7), the log2 fold change is inactive: 0.036.
